Measured values published in doi:10.1101/719815 (bioRxiv, 2019).
No constants are given. Whether binding was seen depends on the method and setting. Binding seen in cells or lysates may run through a third protein. Some results given as binding are weak or reduced against the parent protein; the word gives no strength. For some assays here: Sequences can lack the tags named with a protein. Each block holds one binder with its values, some of them ahead of it.

What was measured:
[1] = molecular target: T1, Cdc24 extended by the Cub-RUra3 module (Cdc24CRU) (yeast), P11433; test: split reporter; conditions: remark: other sources report otherwise
T1 chain: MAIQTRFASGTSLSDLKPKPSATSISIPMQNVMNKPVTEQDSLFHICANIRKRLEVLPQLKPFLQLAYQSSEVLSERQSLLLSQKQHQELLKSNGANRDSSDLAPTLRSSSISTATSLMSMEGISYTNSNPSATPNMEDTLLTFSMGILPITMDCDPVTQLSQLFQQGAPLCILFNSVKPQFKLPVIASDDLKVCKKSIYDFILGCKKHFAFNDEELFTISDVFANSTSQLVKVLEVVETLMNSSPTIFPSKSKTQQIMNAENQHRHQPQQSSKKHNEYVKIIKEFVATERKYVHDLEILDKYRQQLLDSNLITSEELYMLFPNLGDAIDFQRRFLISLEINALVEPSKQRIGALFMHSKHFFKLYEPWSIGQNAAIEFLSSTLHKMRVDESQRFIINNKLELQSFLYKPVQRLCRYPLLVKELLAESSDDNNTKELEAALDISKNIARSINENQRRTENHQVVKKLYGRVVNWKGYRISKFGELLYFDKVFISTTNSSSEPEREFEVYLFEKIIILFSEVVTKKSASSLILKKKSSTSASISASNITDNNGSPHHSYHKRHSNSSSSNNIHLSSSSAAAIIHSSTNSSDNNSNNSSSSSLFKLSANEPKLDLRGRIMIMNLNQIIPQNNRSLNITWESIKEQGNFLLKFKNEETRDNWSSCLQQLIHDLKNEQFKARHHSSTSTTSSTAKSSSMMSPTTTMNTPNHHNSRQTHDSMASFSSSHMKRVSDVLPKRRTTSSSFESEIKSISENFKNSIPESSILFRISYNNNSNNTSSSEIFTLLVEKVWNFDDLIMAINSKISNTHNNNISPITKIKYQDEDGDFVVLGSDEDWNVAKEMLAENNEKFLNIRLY

[2] = molecular target: T2, Cdc11-mCherry-Cub-GFP (Cdc11CCG) (yeast) (UniProt P32458); test: split reporter
T2 sequence: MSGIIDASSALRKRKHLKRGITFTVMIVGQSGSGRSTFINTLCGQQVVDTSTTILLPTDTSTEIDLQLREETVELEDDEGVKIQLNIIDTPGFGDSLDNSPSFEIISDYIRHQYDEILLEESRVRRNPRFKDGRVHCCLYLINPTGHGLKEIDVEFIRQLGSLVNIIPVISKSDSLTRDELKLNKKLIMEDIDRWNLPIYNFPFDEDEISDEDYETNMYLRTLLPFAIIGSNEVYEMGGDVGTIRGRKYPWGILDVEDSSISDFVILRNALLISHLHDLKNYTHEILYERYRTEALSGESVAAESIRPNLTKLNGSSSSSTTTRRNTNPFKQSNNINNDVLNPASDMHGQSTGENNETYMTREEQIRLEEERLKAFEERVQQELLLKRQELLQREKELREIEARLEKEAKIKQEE

- binding [1]: binds
B1: Nub-Rsr1, P13856 1-272 (protein)
chain: MRDYKLVVLGAGGVGKSCLTVQFVQGVYLDTYDPTIEDSYRKTIEIDNKVFDLEILDTAGIAQFTAMRELYIKSGMGFLLVYSVTDRQSLEELMELREQVLRIKDSDRVPMVLIGNKADLINERVISVEEGIEVSSKWGRVPFYETSALLRSNVDEVFVDLVRQIIRNEMESVAVKDARNQSQQFSKIESPSTRLPSSAKQDTKQSNNKQSSKGLYNKSSQGQAKVKQSTPVNEKHKPSHAVPKSGSSNRTGISATSQQKKKKKNASTCTIL

- binding [2]: binds
B2: Nub-Cdc24 (protein, UniProt P11433 1-854)
chain: T1 chain
